Experimental data published in the supplement of paper PMC8728848.
This is one part of the list.

How the values were obtained:
Assay in all cases: glycan array binding signal (z-score within array); higher = stronger binding
Conditions in all cases: glycan notation: IUPAC condensed, linker removed
GlcNAc(b1-3)Gal(b1-4)Glc = target: GlcNAc(b1-3)Gal(b1-4)Glc
How it was run: (§1)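 Glycan array binding is given as a within-array Z-score, which can be read as non-binding when negative. The arrays, 3228 of them, came from the Consortium for Functional Glycomics database and were retained only where the protein sequence was available. Z-scores were averaged across arrays of the same protein sequence at different concentrations or buffers and across linkers.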

[1] = target: GlcNAc(b1-3)Gal(b1-4)GlcNAc
How it was run: as §1

[2] = target: GlcNAc(b1-3)Gal(b1-4)GlcNAc(b1-2)Man(a1-3)[GlcNAc(b1-3)Gal(b1-4)GlcNAc(b1-2)Man(a1-6)]Man(b1-4)GlcNAc(b1-4)GlcNAc
How it was run: as §1

[3] = target: GlcNAc(b1-3)Gal(b1-4)GlcNAc(b1-2)Man(a1-3)[GlcNAc(b1-3)Gal(b1-4)GlcNAc(b1-2)Man(a1-6)]Man(b1-4)GlcNAc(b1-4)[Fuc(a1-6)]GlcNAc
How it was run: as §1

[4] = target: GlcNAc(b1-3)Gal(b1-4)GlcNAc(b1-2)[GlcNAc(b1-3)Gal(b1-4)GlcNAc(b1-6)]Man(a1-6)[GlcNAc(b1-3)Gal(b1-4)GlcNAc(b1-2)Man(a1-3)]Man(b1-4)GlcNAc(b1-4)GlcNAc
How it was run: as §1

[5] = target: GlcNAc(b1-3)Gal(b1-4)GlcNAc(b1-3)Gal(b1-4)GlcNAc
How it was run: as §1

[6] = target: GlcNAc(b1-3)Gal(b1-4)GlcNAc(b1-3)Gal(b1-4)GlcNAc(b1-2)Man(a1-3)[GlcNAc(b1-3)Gal(b1-4)GlcNAc(b1-3)Gal(b1-4)GlcNAc(b1-2)Man(a1-6)]Man(b1-4)GlcNAc(b1-4)GlcNAc
How it was run: as §1

[7] = target: GlcNAc(b1-3)Gal(b1-4)GlcNAc(b1-3)Gal(b1-4)GlcNAc(b1-2)Man(a1-3)[GlcNAc(b1-3)Gal(b1-4)GlcNAc(b1-3)Gal(b1-4)GlcNAc(b1-2)Man(a1-6)]Man(b1-4)GlcNAc(b1-4)[Fuc(a1-6)]GlcNAc
How it was run: as §1

[8] = target: GlcNAc(b1-3)Gal(b1-4)GlcNAc(b1-3)Gal(b1-4)GlcNAc(b1-2)[GlcNAc(b1-3)Gal(b1-4)GlcNAc(b1-3)Gal(b1-4)GlcNAc(b1-6)]Man(a1-6)[GlcNAc(b1-3)Gal(b1-4)GlcNAc(b1-3)Gal(b1-4)GlcNAc(b1-2)Man(a1-3)]Man(b1-4)GlcNAc(b1-4)[Fuc(a1-6)]GlcNAc
How it was run: as §1

[9] = target: GlcNAc(b1-3)Gal(b1-4)GlcNAc(b1-3)Gal(b1-4)GlcNAc(b1-3)Gal(b1-4)GlcNAc(b1-2)Man(a1-3)[GlcNAc(b1-3)Gal(b1-4)GlcNAc(b1-3)Gal(b1-4)GlcNAc(b1-3)Gal(b1-4)GlcNAc(b1-2)Man(a1-6)]Man(b1-4)GlcNAc(b1-4)GlcNAc
How it was run: as §1

[10] = target: GlcNAc(b1-3)Gal(b1-4)GlcNAc(b1-3)Gal(b1-4)GlcNAc(b1-3)Gal(b1-4)GlcNAc(b1-2)Man(a1-3)[GlcNAc(b1-3)Gal(b1-4)GlcNAc(b1-3)Gal(b1-4)GlcNAc(b1-3)Gal(b1-4)GlcNAc(b1-2)Man(a1-6)]Man(b1-4)GlcNAc(b1-4)[Fuc(a1-6)]GlcNAc
How it was run: as §1

[11] = target: GlcNAc(b1-3)Gal(b1-4)GlcNAc(b1-3)Gal(b1-4)GlcNAc(b1-3)Gal(b1-4)GlcNAc(b1-2)[GlcNAc(b1-3)Gal(b1-4)GlcNAc(b1-3)Gal(b1-4)GlcNAc(b1-3)Gal(b1-4)GlcNAc(b1-6)]Man(a1-6)[GlcNAc(b1-3)Gal(b1-4)GlcNAc(b1-3)Gal(b1-4)GlcNAc(b1-3)Gal(b1-4)GlcNAc(b1-2)Man(a1-3)]Man(b1-4)GlcNAc(b1-4)[Fuc(a1-6)]GlcNAc
How it was run: as §1

[12] = target: GlcNAc(b1-3)Gal(b1-4)GlcNAc(b1-3)Gal(b1-4)GlcNAc(b1-3)Gal(b1-4)GlcNAc(b1-3)Gal(b1-4)GlcNAc(b1-2)Man(a1-3)[GlcNAc(b1-3)Gal(b1-4)GlcNAc(b1-3)Gal(b1-4)GlcNAc(b1-3)Gal(b1-4)GlcNAc(b1-3)Gal(b1-4)GlcNAc(b1-2)Man(a1-6)]Man(b1-4)GlcNAc(b1-4)GlcNAc
How it was run: as §1

[13] = target: GlcNAc(b1-3)Gal(b1-4)GlcNAc(b1-3)Gal(b1-4)GlcNAc(b1-3)Gal(b1-4)GlcNAc(b1-3)Gal(b1-4)GlcNAc(b1-2)Man(a1-3)[GlcNAc(b1-3)Gal(b1-4)GlcNAc(b1-3)Gal(b1-4)GlcNAc(b1-3)Gal(b1-4)GlcNAc(b1-3)Gal(b1-4)GlcNAc(b1-2)Man(a1-6)]Man(b1-4)GlcNAc(b1-4)[Fuc(a1-6)]GlcNAc
How it was run: as §1

[14] = target: GlcNAc(b1-3)Gal(b1-4)GlcNAc(b1-3)Gal(b1-4)GlcNAc(b1-3)Gal(b1-4)GlcNAc(b1-3)Gal(b1-4)GlcNAc(b1-2)[GlcNAc(b1-3)Gal(b1-4)GlcNAc(b1-3)Gal(b1-4)GlcNAc(b1-3)Gal(b1-4)GlcNAc(b1-3)Gal(b1-4)GlcNAc(b1-6)]Man(a1-6)[GlcNAc(b1-3)Gal(b1-4)GlcNAc(b1-3)Gal(b1-4)GlcNAc(b1-3)Gal(b1-4)GlcNAc(b1-3)Gal(b1-4)GlcNAc(b1-2)Man(a1-3)]Man(b1-4)GlcNAc(b1-4)[Fuc(a1-6)]GlcNAc
How it was run: as §1

[15] = target: GlcNAc(b1-3)Gal(b1-4)GlcNAc(b1-3)Gal(b1-4)GlcNAc(b1-3)GalNAc
How it was run: as §1

[16] = target: GlcNAc(b1-3)Gal(b1-4)GlcNAc(b1-3)GalNAc
How it was run: as §1

[17] = target: GlcNAc(b1-3)Gal(b1-4)GlcNAc(b1-3)[GlcNAc(b1-3)Gal(b1-4)GlcNAc(b1-3)]GalNAc
How it was run: as §1

[18] = target: GlcNAc(b1-3)Gal(b1-4)GlcNAc(b1-6)[Gal(b1-3)]GalNAc
How it was run: as §1

[19] = target: GlcNAc(b1-3)Gal(b1-4)GlcNAc(b1-6)[GlcNAc(b1-3)Gal(b1-3)]GalNAc
How it was run: as §1

[20] = target: GlcNAc(b1-3)Gal(b1-4)GlcNAc(b1-6)[GlcNAc(b1-3)]Gal(b1-4)GlcNAc
How it was run: as §1

GlcNAc(b1-3)GalNAc = target: GlcNAc(b1-3)GalNAc
How it was run: as §1

GlcNAc(b1-3)Man = target: GlcNAc(b1-3)Man
How it was run: as §1

[21] = target: GlcNAc(b1-3)[GlcNAc(b1-4)][GlcNAc(b1-6)]GlcNAc
How it was run: as §1

[22] = target: GlcNAc(b1-3)[GlcNAc(b1-6)]Gal(b1-4)GlcNAc
How it was run: as §1

[23] = target: GlcNAc(b1-3)[GlcNAc(b1-6)]GalNAc
How it was run: as §1

[24] = target: GlcNAc(b1-4)Gal(b1-4)GlcNAc
How it was run: as §1

GlcNAc(b1-4)GlcNAc = target: GlcNAc(b1-4)GlcNAc
How it was run: as §1

[25] = target: GlcNAc(b1-4)GlcNAc(b1-4)GlcNAc
How it was run: as §1

[26] = target: GlcNAc(b1-4)GlcNAc(b1-4)GlcNAc(b1-4)GlcNAc(b1-4)GlcNAc
How it was run: as §1

[27] = target: GlcNAc(b1-4)GlcNAc(b1-4)GlcNAc(b1-4)GlcNAc(b1-4)GlcNAc(b1-4)GlcNAc
How it was run: as §1

[28] = target: GlcNAc(b1-4)[GlcNAc(b1-6)]GalNAc
How it was run: as §1

[29] = target: GlcNAc(b1-6)Gal(b1-4)GlcNAc
How it was run: as §1

GlcNAc(b1-6)GalNAc = target: GlcNAc(b1-6)GalNAc
How it was run: as §1

[30] = target: GlcNAc6S(b1-3)Gal(b1-4)GlcNAc
How it was run: as §1

Kdn(a2-3)Gal(b1-3)GalNAc = target: Kdn(a2-3)Gal(b1-3)GalNAc
How it was run: as §1

Kdn(a2-3)Gal(b1-3)GlcNAc = target: Kdn(a2-3)Gal(b1-3)GlcNAc
How it was run: as §1

Kdn(a2-3)Gal(b1-4)Glc = target: Kdn(a2-3)Gal(b1-4)Glc
How it was run: as §1

Kdn(a2-3)Gal(b1-4)GlcNAc = target: Kdn(a2-3)Gal(b1-4)GlcNAc
How it was run: as §1

[31] = target: Kdn(a2-3)Gal(b1-4)[Fuc(a1-3)]GlcNAc
How it was run: as §1

Kdn(a2-6)Gal(b1-4)GlcNAc = target: Kdn(a2-6)Gal(b1-4)GlcNAc
How it was run: as §1

[32] = target: Man(a1-2)Man(a1-2)Man(a1-3)Man
How it was run: as §1

[33] = target: Man(a1-2)Man(a1-2)Man(a1-6)[Man(a1-3)]Man
How it was run: as §1

Man(a1-2)Man(a1-3)Man = target: Man(a1-2)Man(a1-3)Man
How it was run: as §1

[34] = target: Man(a1-2)Man(a1-3)[Man(a1-2)Man(a1-6)]Man
How it was run: as §1

B1: PX14343I-pdi-501-30-501 (Parabacteroides distasonis) (protein)
chain: SDQYSTETFWKTKEHASAGIMGCYNALKLWRSLHTMEFDMLTANAMPYNEANGTQAIGKGEHLSTTALIGSLWKNCYVGIGRTNTFIANVGGVDMDESEKAKMVGEAKFLRAFYYLSLVDKFGGVPLIIDAPNADEQAELPRNSKEEVVNQIVKDLEEAAAVLPDTYASSDLGRATKGAALALKARTLLYNSRWAEAAQAAKQVMESGVYQLFNDYRHFFSEDNKYNCEVIFDIEAKLPEYPTDYDQNIWRLNRPAPLKELVDTYLCVDGKTIEESPLYDPTRPYENRDPRLLKSIVCIGYPYLGKTITKEDVATTGFGVKKYTSYEDDVTIPLVERSAFNFILIRYAEVLLTYAEAQNEASGPDQSVYDAINQLRRRPDINMPEVPKGLTKDQMREVIRRERRIELTFEGLYYSDILRWKTAEKENNGMMHNYEGIEVVKRSFNPKRDYLWPIPYNQTVLNPNLEQNPNWD
glycan array binding signal (z-score) (GlcNAc(b1-3)Gal(b1-4)Glc): -0.466
glycan array binding signal (z-score) [1]: -0.649
glycan array binding signal (z-score) [2]: -0.138
glycan array binding signal (z-score) [3]: 4.66
glycan array binding signal (z-score) [4]: 0.557
glycan array binding signal (z-score) [5]: -0.615
glycan array binding signal (z-score) [6]: 1.15
glycan array binding signal (z-score) [7]: 1.31
glycan array binding signal (z-score) [8]: 1.77
glycan array binding signal (z-score) [9]: 0.959
glycan array binding signal (z-score) [10]: 0.231
glycan array binding signal (z-score) [11]: 0.975
glycan array binding signal (z-score) [12]: 0.48
glycan array binding signal (z-score) [13]: 1.23
glycan array binding signal (z-score) [14]: 0.812
glycan array binding signal (z-score) [15]: -0.294
glycan array binding signal (z-score) [16]: -0.574
glycan array binding signal (z-score) [17]: -0.357
glycan array binding signal (z-score) [18]: -0.576
glycan array binding signal (z-score) [19]: 0.015
glycan array binding signal (z-score) [20]: -0.401
glycan array binding signal (z-score) (GlcNAc(b1-3)GalNAc): -0.701
glycan array binding signal (z-score) (GlcNAc(b1-3)Man): -0.136
glycan array binding signal (z-score) [21]: 0.101
glycan array binding signal (z-score) [22]: -0.551
glycan array binding signal (z-score) [23]: 0.395
glycan array binding signal (z-score) [24]: -0.114
glycan array binding signal (z-score) (GlcNAc(b1-4)GlcNAc): -0.757
glycan array binding signal (z-score) [25]: -0.204
glycan array binding signal (z-score) [26]: -0.163
glycan array binding signal (z-score) [27]: 0.162
glycan array binding signal (z-score) [28]: 1.25
glycan array binding signal (z-score) [29]: -0.84
glycan array binding signal (z-score) (GlcNAc(b1-6)GalNAc): -0.084
glycan array binding signal (z-score) [30]: -0.071
glycan array binding signal (z-score) (Kdn(a2-3)Gal(b1-3)GalNAc): 0.874
glycan array binding signal (z-score) (Kdn(a2-3)Gal(b1-3)GlcNAc): 0.694
glycan array binding signal (z-score) (Kdn(a2-3)Gal(b1-4)Glc): -0.237
glycan array binding signal (z-score) (Kdn(a2-3)Gal(b1-4)GlcNAc): -0.302
glycan array binding signal (z-score) [31]: -0.402
glycan array binding signal (z-score) (Kdn(a2-6)Gal(b1-4)GlcNAc): 0.035
glycan array binding signal (z-score) [32]: -0.22
glycan array binding signal (z-score) [33]: 0.234
glycan array binding signal (z-score) (Man(a1-2)Man(a1-3)Man): 0.611
glycan array binding signal (z-score) [34]: -0.805
